Test results as given in PMC2904775.
Results are given in words; binding and its absence hold for the method and conditions named. A result given as binding can be weak or reduced; the word gives no strength. Where a sequence is shown, tags or fusion partners need not be part of it. For some of these results: In cells and extracts the contact can be indirect.

T1: MBP-AGO1_(366-1048) containing the PAZ-MID-PIWI domains (Arabidopsis thaliana) (UniProt O04379)
T1 sequence: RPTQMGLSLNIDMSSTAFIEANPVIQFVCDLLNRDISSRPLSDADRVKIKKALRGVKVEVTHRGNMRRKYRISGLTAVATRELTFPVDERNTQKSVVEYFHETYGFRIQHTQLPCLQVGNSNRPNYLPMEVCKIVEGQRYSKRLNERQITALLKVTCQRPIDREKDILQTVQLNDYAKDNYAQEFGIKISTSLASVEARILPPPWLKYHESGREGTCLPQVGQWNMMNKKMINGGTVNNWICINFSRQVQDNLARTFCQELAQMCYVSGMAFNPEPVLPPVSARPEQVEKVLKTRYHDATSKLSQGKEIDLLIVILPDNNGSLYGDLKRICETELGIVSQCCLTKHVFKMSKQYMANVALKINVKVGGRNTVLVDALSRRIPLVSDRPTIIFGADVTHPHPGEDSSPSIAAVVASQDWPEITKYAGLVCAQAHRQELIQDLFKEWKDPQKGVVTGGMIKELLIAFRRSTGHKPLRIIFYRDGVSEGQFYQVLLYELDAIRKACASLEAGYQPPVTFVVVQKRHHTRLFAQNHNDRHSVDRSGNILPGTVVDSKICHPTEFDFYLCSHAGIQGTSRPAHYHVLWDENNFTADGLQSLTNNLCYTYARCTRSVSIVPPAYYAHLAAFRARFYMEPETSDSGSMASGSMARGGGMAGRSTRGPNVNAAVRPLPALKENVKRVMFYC

T2: 6×myc-tagged AGO1 of Arabidopsis thaliana (myc-AGO1) (Arabidopsis thaliana) (UniProt O04379)
T2 sequence: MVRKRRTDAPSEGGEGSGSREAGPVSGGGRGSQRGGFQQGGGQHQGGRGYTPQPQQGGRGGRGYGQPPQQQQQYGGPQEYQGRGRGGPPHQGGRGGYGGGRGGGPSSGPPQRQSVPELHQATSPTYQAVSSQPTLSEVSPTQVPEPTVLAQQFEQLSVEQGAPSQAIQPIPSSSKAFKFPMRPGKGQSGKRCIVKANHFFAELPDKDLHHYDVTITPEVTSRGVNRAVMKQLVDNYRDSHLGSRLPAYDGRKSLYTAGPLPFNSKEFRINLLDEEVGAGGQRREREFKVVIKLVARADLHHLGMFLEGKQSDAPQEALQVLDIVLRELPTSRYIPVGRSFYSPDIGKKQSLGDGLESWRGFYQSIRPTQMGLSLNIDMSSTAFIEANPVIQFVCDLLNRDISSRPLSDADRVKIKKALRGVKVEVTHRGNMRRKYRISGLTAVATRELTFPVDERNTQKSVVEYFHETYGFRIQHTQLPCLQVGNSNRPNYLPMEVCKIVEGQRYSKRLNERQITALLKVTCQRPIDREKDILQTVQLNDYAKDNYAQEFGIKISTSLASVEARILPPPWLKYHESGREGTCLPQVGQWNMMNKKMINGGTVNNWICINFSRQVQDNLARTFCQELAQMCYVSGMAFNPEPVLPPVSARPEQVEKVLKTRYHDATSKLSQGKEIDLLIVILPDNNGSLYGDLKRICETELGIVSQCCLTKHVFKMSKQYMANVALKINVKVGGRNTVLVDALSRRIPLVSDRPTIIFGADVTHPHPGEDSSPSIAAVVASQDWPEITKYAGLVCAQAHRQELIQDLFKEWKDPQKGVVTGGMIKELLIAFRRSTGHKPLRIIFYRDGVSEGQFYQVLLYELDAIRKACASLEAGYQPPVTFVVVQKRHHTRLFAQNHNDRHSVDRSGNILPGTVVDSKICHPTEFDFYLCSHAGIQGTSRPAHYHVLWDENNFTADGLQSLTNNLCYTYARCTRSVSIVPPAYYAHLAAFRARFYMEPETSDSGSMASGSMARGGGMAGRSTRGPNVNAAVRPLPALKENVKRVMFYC

B1: 6×myc-tagged AGO1 of Arabidopsis thaliana (myc-AGO1) (protein, UniProt O04379 1-1048)
chain: T2 sequence

Key:
[1] = biological target: T1, MBP-AGO1_(366-1048) containing the PAZ-MID-PIWI domains (Arabidopsis thaliana); assay: pull-down; 2 mg of MBP-AtAGO1_(366-1048) or MBP mixed with 4 mg of 6×His-P1 fragment in 30mM TRIS pH 7.5, 150mM NaCl, 5mM MgCl2 and 10% glycerol for 1 hour at 4°C; MBP-tagged proteins isolated on maltose resin, washed three times, eluted with SDS loading buffer; Western blot with anti-MBP and anti-HIS; both purified
[2] = biological target: T2, 6×myc-tagged AGO1 of Arabidopsis thaliana (myc-AGO1) (Arabidopsis thaliana); assay: co-IP; 6×myc-AtAGO1 precipitated with anti-myc beads from extracts of agroinfiltrated N. benthamiana leaves expressing myc-AGO1 and GFP-IR with HA-P1 or HA-P1_(1-383); IP buffer 30 mM TRIS pH 7.5, 150 mM NaCl, 5 mM MgCl2, 5 mM DTT, 10% glycerol, 1 hour at 4°C; Western blot
[3] = biological target: N-terminally HA-tagged SPMMV P1 (HA-P1) (Sweet potato mild mottle virus (SPMMV), African isolate 130); assay: co-IP; HA-tagged proteins precipitated with anti-HA beads from extracts of agroinfiltrated N. benthamiana leaves (3 dpi) co-expressing 6×myc-AtAGO1 and GFP-IR; IP buffer 30 mM TRIS pH 7.5, 150 mM NaCl, 5 mM MgCl2, 5 mM DTT, 10% glycerol, 1 hour at 4°C; Western blot with anti-myc and anti-HA

Molecule	binding [2]	other results
6×His-P1_(1-383) N-terminal fragment of wt P1 (domain or fragment)		binding [1]: binds
HA-P1_(1-383) (domain or fragment)	binds	
N-terminally HA-tagged SPMMV P1 (HA-P1)	binds	
B1		binding [3]: binds
